Experimental data taken from publication PMC5045598.
No constants are given. Whether binding was seen depends on the method and setting. In cells and extracts the contact can be indirect. A yes stands for co-enrichment or nearness to the bait. Other partners may have been found.

Protein sequences, listed by entry. Tags and fused reporters are not part of them.
UniProt Q02539: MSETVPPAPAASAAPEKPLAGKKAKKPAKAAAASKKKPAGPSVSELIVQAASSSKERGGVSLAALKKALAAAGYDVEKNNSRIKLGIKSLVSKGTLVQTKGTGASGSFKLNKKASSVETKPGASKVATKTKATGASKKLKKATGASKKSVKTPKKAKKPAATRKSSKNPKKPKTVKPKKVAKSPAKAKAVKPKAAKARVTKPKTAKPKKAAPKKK
UniProt Q92522: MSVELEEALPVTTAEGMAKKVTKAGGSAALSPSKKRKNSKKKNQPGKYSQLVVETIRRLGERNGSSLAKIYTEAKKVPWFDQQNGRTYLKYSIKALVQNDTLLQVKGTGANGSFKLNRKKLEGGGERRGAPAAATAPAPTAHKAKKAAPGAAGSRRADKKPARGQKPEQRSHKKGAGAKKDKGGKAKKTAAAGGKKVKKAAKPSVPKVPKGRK

Tests used:
Assay in all cases: affinity purification with mass spectrometry; 6 × His-tagged H1 variant from doxycycline-induced U2OS soluble whole cell extract (NP40 lysis buffer: 150 mM NaCl, 50 mM Tris pH7.5, 10 % glycerol, 0.75 % NP40); Mono Q column, then Ni2+ chelating column (wash 50 mM imidazole, elution 500 mM imidazole); peak fractions by LC-MS/MS in duplicate; mock purification from untransfected U2OS Tet/On cells as negative control; H1.1 eluted in two Mono Q peaks, each purified separately
[1] = target: 6 × His-tagged histone H1.2 (human) (UniProt P16403)
[2] = target: 6 × His-tagged histone H1.1 (human) (UniProt Q02539)
[3] = target: 6 × His-tagged histone H1x (human) (UniProt Q92522)

Row | binding [1] | binding [2] | binding [3] | Binder
1 | binds | – | – | nucleolar RNA binding protein EBP2 (protein, UniProt Q99848 1-306) MDTPPLSDSESESDESLVTDRELQDAFSRGLLKPGLNVVLEGPKKAVNDVNGLKQCLAEFKRDLEWVERLDVTLGPVPEIGGSEAPAPQNKDQKAVDPEDDFQREMSFYRQAQAAVLAVLPRLHQLKVPTKRPTDYFAEMAKSDLQMQKIRQKLQTKQAAMERSEKAKQLRALRKYGKKVQTEVLQKRQQEKAHMMNAIKKYQKGFSDKLDFLEGDQKPLAQRKKAGAKGQQMRKGPSAKRRYKNQKFGFGGKKKGSKWNTRESYDDVSSFRAKTAHGRGLKRPGKKGSNKRPGKRTREKMKNRTH
2 | binds | binds | binds | SRP68 (protein, UniProt Q9UHB9 1-627) MAAEKQVPGGGGGGGSGGGGGSGGGGSGGGRGAGGEENKENERPSAGSKANKEFGDSLSLEILQIIKESQQQHGLRHGDFQRYRGYCSRRQRRLRKTLNFKMGNRHKFTGKKVTEELLTDNRYLLLVLMDAERAWSYAMQLKQEANTEPRKRFHLLSRLRKAVKHAEELERLCESNRVDAKTKLEAQAYTAYLSGMLRFEHQEWKAAIEAFNKCKTIYEKLASAFTEEQAVLYNQRVEEISPNIRYCAYNIGDQSAINELMQMRLRSGGTEGLLAEKLEALITQTRAKQAATMSEVEWRGRTVPVKIDKVRIFLLGLADNEAAIVQAESEETKERLFESMLSECRDAIQVVREELKPDQKQRDYILEGEPGKVSNLQYLHSYLTYIKLSTAIKRNENMAKGLQRALLQQQPEDDSKRSPRPQDLIRLYDIILQNLVELLQLPGLEEDKAFQKEIGLKTLVFKAYRCFFIAQSYVLVKKWSEALVLYDRVLKYANEVNSDAGAFKNSLKDLPDVQELITQVRSEKCSLQAAAILDANDAHQTETSSSQVKDNKPLVERFETFCLDPSLVTKQANLVHFPPGFQPIPCKPLFFDLALNHVAFPPLEDKLEQKTKSGLTGYIKGIFGFRS
3 | binds | – | – | DDX50 (protein, UniProt Q9BQ39 1-737) MPGKLLWGDIMELEAPLEESESQKKERQKSDRRKSRHHYDSDEKSETRENGVTDDLDAPKAKKSKMKEKLNGDTEEGFNRLSDEFSKSHKSRRKDLPNGDIDEYEKKSKRVSSLDTSTHKSSDNKLEETLTREQKEGAFSNFPISEETIKLLKGRGVTYLFPIQVKTFGPVYEGKDLIAQARTGTGKTFSFAIPLIERLQRNQETIKKSRSPKVLVLAPTRELANQVAKDFKDITRKLSVACFYGGTSYQSQINHIRNGIDILVGTPGRIKDHLQSGRLDLSKLRHVVLDEVDQMLDLGFAEQVEDIIHESYKTDSEDNPQTLLFSATCPQWVYKVAKKYMKSRYEQVDLVGKMTQKAATTVEHLAIQCHWSQRPAVIGDVLQVYSGSEGRAIIFCETKKNVTEMAMNPHIKQNAQCLHGDIAQSQREITLKGFREGSFKVLVATNVAARGLDIPEVDLVIQSSPPQDVESYIHRSGRTGRAGRTGICICFYQPRERGQLRYVEQKAGITFKRVGVPSTMDLVKSKSMDAIRSLASVSYAAVDFFRPSAQRLIEEKGAVDALAAALAHISGASSFEPRSLITSDKGFVTMTLESLEEIQDVSCAWKELNRKLSSNAVSQITRMCLLKGNMGVCFDVPTTESERLQAEWHDSDWILSVPAKLPEIEEYYDGNTSSNSRQRSGWSSGRSGRSGRSGGRSGGRSGRQSRQGSRSGSRQDGRRRSGNRNRSRSGGHKRSFD
4 | – | binds | binds | SRSF7 (protein, UniProt Q16629 1-238) MSRYGRYGGETKVYVGNLGTGAGKGELERAFSYYGPLRTVWIARNPPGFAFVEFEDPRDAEDAVRGLDGKVICGSRVRVELSTGMPRRSRFDRPPARRPFDPNDRCYECGEKGHYAYDCHRYSRRRRSRSRSRSHSRSRGRRYSRSRSRSRGRRSRSASPRRSRSISLRRSRSASLRRSRSGSIKGSRYFQSPSRSRSRSRSISRPRSSRSKSRSPSPKRSRSPSGSPRRSASPERMD
5 | binds | binds | binds | SRP72 (protein, UniProt O76094 1-671) MASGGSGGVSVPALWSEVNRYGQNGDFTRALKTVNKILQINKDDVTALHCKVVCLIQNGSFKEALNVINTHTKVLANNSLSFEKAYCEYRLNRIENALKTIESANQQTDKLKELYGQVLYRLERYDECLAVYRDLVRNSQDDYDEERKTNLSAVVAAQSNWEKVVPENLGLQEGTHELCYNTACALIGQGQLNQAMKILQKAEDLCRRSLSEDTDGTEEDPQAELAIIHGQMAYILQLQGRTEEALQLYNQIIKLKPTDVGLLAVIANNIITINKDQNVFDSKKKVKLTNAEGVEFKLSKKQLQAIEFNKALLAMYTNQAEQCRKISASLQSQSPEHLLPVLIQAAQLCREKQHTKAIELLQEFSDQHPENAAEIKLTMAQLKISQGNISKACLILRSIEELKHKPGMVSALVTMYSHEEDIDSAIEVFTQAIQWYQNHQPKSPAHLSLIREAANFKLKYGRKKEAISDLQQLWKQNPKDIHTLAQLISAYSLVDPEKAKALSKHLPSSDSMSLKVDVEALENSAGATYIRKKGGKVTGDSQPKEQGQGDLKKKKKKKKGKLPKNYDPKVTPDPERWLPMRERSYYRGRKKGKKKDQIGKGTQGATAGASSELDASKTVSSPPTSPRPGSAATVSASTSNIIPPRHQKPAGAPATKKKQQQKKKKGGKGGW
6 | binds | binds | binds | Hakai (protein, UniProt Q75N03 1-491) MDHTDNELQGTNSSGSLGGLDVRRRIPIKLISKQANKAKPAPRTQRTINRMPAKAPPGDEEGFDYNEEERYDCKGGELFANQRRFPGHLFWDFQINILGEKDDTPVHFCDKCGLPIKIYGRMIPCKHVFCYDCAILHEKKGDKMCPGCSDPVQRIEQCTRGSLFMCSIVQGCKRTYLSQRDLQAHINHRHMRAGKPVTRASLENVHPPIAPPPTEIPERFIMPPDKHHMSHIPPKQHIMMPPPPLQHVPHEHYNQPHEDIRAPPAELSMAPPPPRSVSQETFRISTRKHSNLITVPIQDDSNSGAREPPPPAPAPAHHHPEYQGQPVVSHPHHIMPPQQHYAPPPPPPPPISHPMPHPPQAAGTPHLVYSQAPPPPMTSAPPPITPPPGHIIAQMPPYMNHPPPGPPPPQHGGPPVTAPPPHHYNPNSLPQFTEDQGTLSPPFTQPGGMSPGIWPAPRGPPPPPRLQGPPSQTPLPGPHHPDQTRYRPYYQ
7 | binds | binds | binds | CCNL1 (protein, UniProt Q9UK58 1-526) MASGPHSTATAAAAASSAAPSAGGSSSGTTTTTTTTTGGILIGDRLYSEVSLTIDHSLIPEERLSPTPSMQDGLDLPSETDLRILGCELIQAAGILLRLPQVAMATGQVLFHRFFYSKSFVKHSFEIVAMACINLASKIEEAPRRIRDVINVFHHLRQLRGKRTPSPLILDQNYINTKNQVIKAERRVLKELGFCVHVKHPHKIIVMYLQVLECERNQTLVQTAWNYMNDSLRTNVFVRFQPETIACACIYLAARALQIPLPTRPHWFLLFGTTEEEIQEICIETLRLYTRKKPNYELLEKEVEKRKVALQEAKLKAKGLNPDGTPALSTLGGFSPASKPSSPREVKAEEKSPISINVKTVKKEPEDRQQASKSPYNGVRKDSKRSRNSRSASRSRSRTRSRSRSHTPRRHYNNRRSRSGTYSSRSRSRSRSHSESPRRHHNHGSPHLKAKHTRDDLKSSNRHGHKRKKSRSRSQSKSRDHSDAAKKHRHERGHHRDRRERSRSFERSHKSKHHGGSRSGHGRHRR
8 | – | binds | binds | anti-microbial protein dermcidin (protein, UniProt P81605 20-110) YDPEAASAPGSGNPCHEASAAQKENAGEDPGLARQAPKPRKQRSSLLEKGLDGAKKAVGGLGKLGKDAVEDLESVGKGAVHDVKDVLDSVL
